A word on the cell viability: it is a read-out of living cells in per cent, often relative to untreated cells.

Where “and” joins values, the source holds several entries; their conditions need not be identical. Equal values may be shown once. Where a name gives a salt, the structure may show the parent alone. In all, about 2,100 compounds went through this assay and about 180 (8.6%) showed an effect of 50% or more. The list shows a part of the results.

This assay deals with MOLM1 and UCSD/AML1 (averaged). Nature of the assay: cell viability relative to DMSO control (POC); higher = less growth inhibition. The conditions noted are these: 1 µM; 72 h. The method, then: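 Primary viability screen in the 3q26 EVI1-high AML cell lines MOLM1 and UCSD/AML1 (1.5e3 cells/well, 384-well), compounds at 1 uM for 72 h. ATP CellTiter-Glo read-out given as percent of viable cells over DMSO control (POC), averaged over duplicates. DMSO was the negative control and 5 uM etoposide the positive control. This mapping covers the MicroSource Spectrum and Selleck anticancer libraries (drug names).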
In the case of `O=C(O)P(=O)(O)O`, the cell viability was 108%. For `CC1(C)C2CC(=O)O[C@@]3(C)C4=CC(=O)O[C@@H](c5ccoc5)[C@]4(C)CCC3[C@@]2(C)C=C[C@H]1O` (some centres undefined) the value was 95.9%; for `C#C[C@]1(O)CC[C@H]2[C@@H]3CCc4cc(OC)ccc4[C@H]3CC[C@@]21C`, 92.9%; for `CC(C)NCC(O)c1ccc(NS(C)(=O)=O)cc1` (centres undefined), 94.8%. Turning to `CC(=O)N1CCN(c2ccc(OCC3COC(Cn4ccnc4)(c4ccc(Cl)cc4Cl)O3)cc2)CC1` (centres undefined), the cell viability came out at 114%.

As for `C[C@H](NC(=O)Cc1cc(F)cc(F)c1)C(=O)N[C@@H]1C(=O)N(C)c2ccccc2-c2ccccc21`, the cell viability amounted to 101%. For `O=c1c(-c2ccc(O)cc2)coc2cc(O)cc(O)c12`, the cell viability amounted to 120%. Take `O=C1C=C2CC3(O)COc4cc(O)ccc4C3=C2C=C1O` (centres undefined): the cell viability was 99.3%. Turning to `N[C@H](Cc1ccccc1)C(=O)O`, the cell viability was 109%.

Consider `CCCc1nc(C)c2c(O)nc(-c3cc(S(=O)(=O)N4CCN(CC)CC4)ccc3OCC)nn12`, for which the cell viability turned out to be 105%.

With `CNC(=C[N+](=O)[O-])NCCSCc1ccc(CN(C)C)o1`, the cell viability turned out to be 100%. The same measure for `COc1cc2c(cc1OC)-c1cc3ccc(OC)c(OC)c3c[n+]1CC2`: 95.7% and 88.9%; for `COC(=O)[C@H]1[C@H]2C[C@@H]3c4[nH]c5cc(OC)ccc5c4CCN3C[C@H]2C[C@@H](OC(=O)c2cc(OC)c(OC)c(OC)c2)[C@@H]1OC`: 106%; for `CC(=O)C12OC(C)(c3ccccc3)OC1CC1C3CCC4=CC(=O)CCC4(C)C3CCC12C` (centres undefined): 89.4%. The same measure for `CC(C)(CO)[C@@H](O)C(=O)NCCCO`: 103%. On to `CC(C)C[C@H](NC(=O)CNC(=O)c1cc(Cl)ccc1Cl)B(O)O` [Ixazomib (MLN2238)], for which the cell viability is 1.39%. For `O=C(O[C@@H]1Cc2c(O)cc(O)cc2O[C@@H]1c1cc(O)c(O)c(O)c1)c1cc(O)c(O)c(O)c1` the value was 94.8%.

With `O=C(O[C@@H]1Cc2c(O)cc(O)cc2O[C@@H]1c1cc(O)c(O)c(O)c1)c1cc(O)c(O)c(O)c1` [(-)-Epigallocatechin gallate], the cell viability stood at 98.3%.

As for `CC(C(=O)O)[C@H]1CCC2C3CC=C4C[C@@H](O)CC[C@]4(C)C3CC[C@@]21C` (stereo partly drawn) [3beta-HYDROXY-23,24-BISNORCHOL-5-ENIC ACID], the cell viability turned out to be 109%.

`CCN(CC)CCNC(=O)c1ccc(NC(C)=O)cc1`: the cell viability worked out at 101%. The same measure for `CCOc1ccn(-c2ccc(F)cc2)c(=O)c1C(=O)Nc1ccc(Oc2ccnc(N)c2Cl)c(F)c1`: 79%. For `CNC[C@H](O)c1cccc(O)c1` the value was 101%; for `Cc1cccc(-c2[nH]c(C(C)(C)C)nc2-c2ccc3nccnc3c2)n1`, 115%. The same measure for `CC[C@@]1(O)C(=O)OCc2c1cc1n(c2=O)Cc2cc3cc(O)ccc3nc2-1`: 7.32%; for `O=C1C(CC[S+]([O-])c2ccccc2)C(=O)N(c2ccccc2)N1c1ccccc1` (centres undefined): 112%; for `NS(=O)(=O)c1cc2c(cc1Cl)N=C(CSCc1ccccc1)NS2(=O)=O`: 104%. With `CC(=O)OC/C=C(C)/C=C/C=C(C)/C=C/C1=C(C)CCCC1(C)C`, the cell viability was found to be 118%.

For the molecule `N=c1ccn2c(n1)O[C@H]1[C@H](O)[C@@H](CO)O[C@H]12`, the cell viability was determined as 5.77%.

Regarding `CS(=O)(=O)c1ccc([C@@H](O)[C@@H](CO)NC(=O)C(Cl)Cl)cc1`, the cell viability came to 96.4%. For `O=c1[nH]cc(F)c(=O)[nH]1` [Adrucil (Fluorouracil)] the value was 89.3%. The same measure for `O=c1[nH]cc(F)c(=O)[nH]1`: 90.4%; for `C[C@]12C=CC(=O)C=C1CC[C@@H]1[C@@H]2[C@@H](O)C[C@@]2(C)[C@H]1CC[C@]2(O)C(=O)CO`: 77.6%; for `O=C(O)Cc1ccccc1Nc1c(Cl)cccc1Cl`: 96.8%. For `C[C@@H]1O[C@@H](Oc2c(-c3ccc(O)c(O)c3)oc3cc(O)cc(O)c3c2=O)[C@H](O)[C@H](O)[C@H]1O` the value was 100%; for `COC(=O)C1=C(C)NC(C)=C(C(=O)OC)C1c1ccccc1[N+](=O)[O-]`, 97.2%; for `COc1cc2c(cc1O)CC[C@@H]1[C@@H]2CC[C@]2(C)[C@@H](O)CC[C@@H]12` [2-Methoxyestradiol], 13.7%. On to `Nc1ccc(O)c(C(=O)O)c1`, for which the cell viability stood at 89.2%. For `Clc1ccccc1CN1CCc2sccc2C1` the value was 116%. The same measure for `Cc1cc(OC(=O)c2c(C)cc(O)cc2O)cc(O)c1C(=O)O`: 103%. For `CN(C)CCCN1c2ccccc2CCc2ccc(Cl)cc21` the value was 97.2%; for `Cc1cc(C(C)(C)CC(C)(C)C)ccc1OCCOCC[N+](C)(C)Cc1ccccc1`, 88.2%; for `Cc1cc(NC(=O)C2=C(O)c3ccccc3S(=O)(=O)N2C)no1`, 103%.

For `C#C[C@]1(OC(C)=O)CC[C@H]2[C@@H]3CCC4=C[C@@H](OC(C)=O)CC[C@@H]4[C@H]3CC[C@@]21C`, the cell viability stood at 83.8%.

Take `CC(C)[C@H](C(=O)Nc1ccc(C(=O)NO)cc1)c1ccccc1`: the cell viability was determined as 0.459%.

`Nc1ccc(S(=O)(=O)Nc2ncccn2)cc1`: the cell viability is 100%. Consider `CC(=O)NCC(=O)N1[C@@H]2CC[C@H]1c1ccc(Nc3ncc(C(F)(F)F)c(NC4CCC4)n3)cc12`, for which the cell viability came to 20.2%. For `CO[C@@]1(NC(=O)C(C(=O)O)c2ccc(O)cc2)C(=O)N2C(C(=O)O)=C(CSc3nnnn3C)CO[C@@H]21` (some centres undefined) the value was 83.2%.

For `O=c1c(O)c(-c2ccccc2)oc2ccccc12`, the cell viability is 97.5%. As to `C#C[C@]1(O)CC[C@H]2[C@@H]3CCC4=CC(=O)CC[C@@H]4[C@H]3CC[C@@]21C`, the cell viability is 99.4%. Take `CN(C)CCc1c[nH]c2ccc(C[C@H]3COC(=O)N3)cc12`: the cell viability was determined as 65.8%.

In the case of `CN(C)CCC=C1c2ccccc2C=Cc2ccccc21`, the cell viability worked out at 101%. The same measure for `NS(=O)(=O)c1cc2c(cc1Cl)NCNS2(=O)=O`: 98.3%; for `CNNCc1ccc(C(=O)NC(C)C)cc1` [Procarbazine hydrochloride (Matulane)]: 50.4%. On to `Nc1ccc(C(=O)Oc2ccccc2)c(O)c1`, for which the cell viability amounted to 99.4%. With `C[n+]1cccc(C(=O)[O-])c1`, the cell viability was 97.7%. For `O=C(O)c1cc(O)c2c(c1)[C@H]([C@H]1c3cc(C(=O)O)cc(O)c3C(=O)c3c(O[C@@H]4O[C@H](CO)[C@@H](O)[C@H](O)[C@H]4O)cccc31)c1cccc(O[C@@H]3O[C@H](CO)[C@@H](O)[C@H](O)[C@H]3O)c1C2=O` the value was 58%. The same measure for `CC(c1cc2ccccc2s1)N(O)C(N)=O` (centres undefined) [Zileuton]: 118%; for `CC(c1cc2ccccc2s1)N(O)C(N)=O` (centres undefined): 95.3%. For `NC(=O)c1ncn([C@@H]2O[C@H](CO)[C@@H](O)[C@H]2O)c1N` the value was 119%. As to `CCC(=O)O[C@H]1[C@H](O[C@@H]2[C@@H](C)[C@H](O[C@H]3C[C@@](C)(OC)[C@@H](O)[C@H](C)O3)[C@@H](C)C(=O)O[C@H](CC)[C@@](C)(O)[C@H](O)[C@@H](C)C(=O)[C@H](C)C[C@@]2(C)O)O[C@H](C)C[C@@H]1N(C)C`, the cell viability was found to be 89.8%.

`OC[C@@H](O)[C@@H](O)[C@H](O)[C@@H](O)CO`: the cell viability was 106%. The same measure for `CCCCCCCCCCCCCc1ccco1`: 97.1%. `COc1cc(C(=O)N2CCOCC2)cc(OC)c1OC`: the cell viability was 96.1%. The same measure for `CC(=O)OCC(=O)[C@@]1(O)CC[C@H]2[C@@H]3CCC4=CC(=O)CC[C@]4(C)[C@H]3C(=O)C[C@@]21C`: 101%; for `CCCCC(=O)O[C@]1(C(=O)CO)[C@@H](C)C[C@H]2[C@@H]3CCC4=CC(=O)C=C[C@]4(C)[C@@]3(F)[C@@H](O)C[C@@]21C`: 70.8%; for `COc1cc(O)c(C(C)=O)c(OC)c1`: 101%.

On to `CN(C)CCCOc1nn(Cc2ccccc2)c2ccccc12`, for which the cell viability was 82.5%.

`Nc1ccc(S(=O)(=O)Nc2ccc(Cl)nn2)cc1`: the cell viability came to 89.8%. The same measure for `CC(C)(O)CC[C@@H](O)[C@](C)(O)[C@H]1CC[C@@]2(O)C3=CC(=O)[C@@H]4C[C@@H](O)[C@@H](O)C[C@]4(C)[C@H]3CC[C@]12C`: 101%; for `Oc1ccc(O)cc1`: 83.1%; for `CN1CCN(c2cccc(Nc3nc4c(-c5ccc(S(C)(=O)=O)cc5)cccn4n3)c2)CC1`: 33.3%. The same measure for `CC1CCC(NC(=O)N(CCCl)N=O)CC1` (centres undefined): 94%; for `C[C@H]1[C@H](NC(=O)/C(=N\OC(C)(C)C(=O)O)c2csc(N)n2)C(=O)N1S(=O)(=O)O`: 90.4%; for `COc1ccc(C2CC(=O)c3ccc(OC)cc3O2)cc1` (centres undefined): 109%. In the case of `CNCCC=C1c2ccccc2CCc2ccccc21`, the cell viability came to 101%. The same measure for `CC(=O)O[C@H]1CC[C@]2(C)[C@H]3CC[C@@]4(C)[C@H](c5ccoc5)OC(=O)[C@H]5O[C@]54[C@]3(C)[C@H](OC(C)=O)C[C@H]2C1(C)C` [3beta-ACETOXYDEOXODIHYDROGEDUNIN]: 91.2%; for `Cc1ccc2c(c1)CC[C@H]1CC(=O)CC[C@]21C`: 104%; for `CCc1c2c(nc3ccc(OC(=O)N4CCC(N5CCCCC5)CC4)cc13)-c1cc3c(c(=O)n1C2)COC(=O)[C@]3(O)CC` [Irinotecan]: 13%.

As for `CCc1c2c(nc3ccc(OC(=O)N4CCC(N5CCCCC5)CC4)cc13)-c1cc3c(c(=O)n1C2)COC(=O)[C@]3(O)CC` [Irinotecan HCl Trihydrate (Campto)], the cell viability was determined as 15.9%. The same measure for `CC(C)(O/N=C(\C(=O)N[C@@H]1C(=O)N2C(C(=O)[O-])=C(C[n+]3ccccc3)CS[C@H]12)c1csc(N)n1)C(=O)O`: 95.2%. For `Cc1ccc(/C(=C\CN2CCCC2)c2ccccn2)cc1` the value was 90.1%; for `CCC[C@H](NC(=O)/C(C#N)=C/c1cccc(Br)n1)c1ccccc1`, 57.8%. For `CCOc1cc2ncc(C#N)c(Nc3ccc(OCc4ccccn4)c(Cl)c3)c2cc1NC(=O)/C=C/CN(C)C` [Neratinib (HKI-272)] the value was 14.7%; for `CN1CCN(C(c2ccccc2)c2ccc(Cl)cc2)CC1` (centres undefined), 97.5%; for `Cc1ccc(C(C)C)cc2c(C)ccc1-2`, 84.7%. For `CC(=O)Nc1c(I)c(NC(C)=O)c(I)c(C(=O)O)c1I`, the cell viability amounted to 114%. The same measure for `CC(=O)Nc1ccc(S(=O)(=O)Nc2ccc([N+](=O)[O-])cc2)cc1`: 101%; for `Cn1cc(C2=C(c3ccc(Cl)cc3Cl)C(=O)NC2=O)c2ccccc21`: 106%. For `CN(N=O)C(=O)N[C@@H](C=O)[C@@H](O)[C@H](O)[C@H](O)CO` [Streptozotocin (Zanosar)] the value was 37.4%.

The values above are taken from the supplement of paper PMC11150407.
